Assay results reported in article doi:10.1101/2022.07.25.501378.
Results are given in words; binding and its absence hold for the method and conditions named. Binding seen in cells or lysates may run through a third protein. A yes stands for co-enrichment or nearness to the bait. Other partners may have been found. Sequences can lack the tags named with a protein. Each block holds one binder with its values, some of them ahead of it.

Target: T1, HflC with a C-terminal double tag (TwinStrep-Tag followed by a poly-Histidine-Tag) (E. coli) (UniProt P0ABC3)
T1 sequence: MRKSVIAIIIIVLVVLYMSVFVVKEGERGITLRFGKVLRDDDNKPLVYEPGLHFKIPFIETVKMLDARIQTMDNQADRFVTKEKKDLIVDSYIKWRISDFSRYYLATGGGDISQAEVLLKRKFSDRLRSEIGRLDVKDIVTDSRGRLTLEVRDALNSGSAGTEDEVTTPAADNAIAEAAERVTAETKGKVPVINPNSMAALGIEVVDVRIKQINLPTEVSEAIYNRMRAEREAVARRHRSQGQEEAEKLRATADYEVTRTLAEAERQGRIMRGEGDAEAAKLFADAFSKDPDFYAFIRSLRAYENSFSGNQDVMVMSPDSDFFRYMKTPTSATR
Assay: cross-linking + affinity purification with mass spectrometry

binding: binds
B1: thiol-reductase chaperone DsbG (protein, UniProt P77202 18-248)
chain: EELPAPVKAIEKQGITIIKTFDAPGGMKGYLGKYQDMGVTIYLTPDGKHAISGYMYNEKGENLSNTLIEKEIYAPAGREMWQRMEQSHWLLDGKKDAPVIVYVFADPFCPYCKQFWQQARPWVDSGKVQLRTLLVGVIKPESPATAAAILASKDPAKTWQQYEASGGKLKLNVPANVSTEQMKVLSDNEKLMDDLGANVTPAIYYMSKENTLQQAVGLPDQKTLNIIMGNK

binding: binds
B2: YajC, a Sec translocon accessory subunit membrane protein (protein, UniProt P0ADZ7 1-110)
chain: MSFFISDAVAATGAPAQGSPMSLILMLVVFGLIFYFMILRPQQKRTKEHKKLMDSIAKGDEVLTNGGLVGRVTKVAENGYIAIALNDTTEVVIKRDFVAAVLPKGTMKAL

binding: binds
B3: cell division coordinator of peptidoglycan synthesis CpoB (protein, UniProt P45955 27-263)
chain: QAPISSVGSGSVEDRVTQLERISNAHSQLLTQLQQQLSDNQSDIDSLRGQIQENQYQLNQVVERQKQILLQIDSLSSGGAAAQSTSGDQSGAAASTTPTADAGTANAGAPVKSGNANTDYNAAIALVQDKSRQDDAMVAFQNFIKNYPDSTYLPNANYWLGQLNYNKGKKDDAAYYFASVVKNYPKSPKAADAMFKVGVIMQDKGDTAKAKAVYQQVISKYPGTDGAKQAQKRLNAM
